Some entries share one result that the patent states for a list of compounds.
Assays:
Assay type in all cases: in vivo
Liriomyza trifolii = assay: Test Example 13: Mortality Test for Liriomyza trifolii; details: drug solution 500 ppm; kidney bean leaf with eggs immersed; after 6 days
Procedure: (§1) A 10% emulsifiable concentrate of the compound of the present invention (depending on the type of the compound, a 10% wettable powder was subjected to the test) was diluted with water containing a spreader to prepare a drug solution in a concentration of 500 ppm. In this drug solution, a leaf of kidney bean on which Liriomyza trifolii laid eggs (10 eggs/leaf) and which was cut out to a diameter of 7 cm was immersed for about 10 seconds and was air-dried and then laid on a wet filtration paper laid in a styrol cup having an inner diameter of 7 cm. The styrol cup was capped and stored in a thermostat room of 25° C. The number of killed larvae after 6 days was measured and the mortality was calculated from the same calculation formula as that in Test Example 1. Here, the test was carried out with two replications.

[1] = tested on: American dog ticks (Dermacentor variabilis); assay: Test Example 16: Mortality Test for American Dog Tick; details: thin film in petri dishes, 0.1 μg/cm^2 (acetone solution 100 ppm); protonymphs; after 4 days
Procedure: To the bottom surfaces and the side surfaces of two petri dishes having an inner diameter of 5.3 cm, 400 μL of an acetone solution in which 4 mg of a compound of the present invention was dissolved in 40 mL of acetone (concentration: 100 ppm) was applied and the acetone was volatilized to form a thin film of the compound of the present invention on the inner walls of the petri dishes. The inner wall of the used petri dish has an area of 40 cm^2, so that the amount of the applied drug is 0.1 μg/cm^2. In one petri dish, 10 American dog ticks (Dermacentor variabilis) protonymphs (male and female were mixed) were released and the petri dish was capped with the other petri dish. The seam part of the two petri dishes was sealed with a tape so that the protonymphs could not flee and the two petri dishes were stored in a thermostat room of 25° C. The number of killed protonymphes after 4 days was measured and the mortality was calculated from the same calculation formula as that in Test Example 1. Here, the test was carried out on the single sample.

Nilaparvata lugens = assay: Test Example 8: Mortality Test for Nilaparvata lugens; details: drug solution 500 ppm; Oryza sativa leaf sheath immersed; 2 instar larvae; after 6 days
Procedure: as §1, with “leaf sheath” for “leaf”, “Oryza sativa” for “kidney bean on which Liriomyza trifolii laid eggs (10 eggs/leaf) and which was cut out to a diameter of 7 cm”, “put into” for “laid on”, “test tube. In the test tube, five 2 instar larvae” for “wet filtration paper laid in a styrol cup having an inner diameter”, “Nilaparvata lugens per test tube were released and the test tube” for “7 cm. The styrol cup”, “capped with a sponge” for “capped”

Spodoptera litura = assay: Test Example 2: Mortality Test for Spodoptera litura; details: leaf immersed, 2 instar larvae, after 6 days
Procedure: as §1, with “10” for “500”, “canarium album” for “kidney bean on which Liriomyza trifolii laid eggs (10 eggs/leaf) and which was cut out to a diameter of 7 cm”, “put into” for “laid on”, “petri dish. In the petri dish, five 2 instar larvae” for “wet filtration paper laid in a styrol cup having an inner diameter”, “Spodoptera litura per petri dish were released and the petri dish” for “7 cm. The styrol cup”

Plutella xylostella = assay: Test Example 1: Mortality Test for Plutella xylostella; details: leaf immersed, 2 instar larvae, after 6 days
Procedure: A 10% emulsifiable concentrate of the compound of the present invention (depending on the type of the compound, a 10% wettable powder was subjected to the test) was diluted with water containing a spreader to prepare a drug solution in a concentration of 10 ppm. In this drug solution, a leaf of canarium album was immersed for about 10 seconds and was air-dried and then put into a petri dish. In the petri dish, five 2 instar larvae of Plutella xylostella per petri dish were released and the petri dish was capped and stored in a thermostat room of 25° C. The number of killed larvae after 6 days was measured and the mortality was calculated from the following calculation formula: Mortality (%)=(number of killed larvae/number of released larvae)×100. Here, the test was carried out with two replications.

Planococcus kraunhiae = assay: Test Example 11: Mortality Test for Planococcus kraunhiae; details: drug solution 500 ppm; dusted 2.5 mL per cup; 1 instar larvae; after 6 days
Procedure: In a styrol cup having an inner diameter of 7 cm, a wet filtration paper was laid, and on the paper, a leaf of kidney bean cut out so as to have the same diameter as the inner diameter of the cup was laid, followed by inoculating ten 1 instar larvae of Planococcus kraunhiae per leaf to the leaf. A 10% emulsifiable concentrate of the compound of the present invention (depending on the type of the compound, a 10% wettable powder was subjected to the test) was diluted with water containing a spreader to prepare a drug solution in a concentration of 500 ppm. The drug solution was dusted using a rotary dusting tower in an amount of 2.5 mL per styrol cup and the cup was capped and stored in a thermostat room of 25° C. The number of killed larvae after 6 days was measured and the mortality was calculated from the same calculation formula as that in Test Example 1. Here, the test was carried out with two replications.

[2] = drug solution 500 ppm (mark **)

## Cc1cc(C2=NOC(c3cc(Cl)cc(Cl)c3)(C(F)(F)F)C2)ccc1C(=O)NC1(C2CC2)CC1 (stereo not drawn) [No. 1-002]
Liriomyza trifolii
  mortality: ≥ 80%
[1]
  mortality: ≥ 80%
Nilaparvata lugens
  mortality: ≥ 80%

## Cc1cc(C2=NOC(c3cc(Cl)cc(Cl)c3)(C(F)(F)F)C2)ccc1C(=O)NC1(C#N)CC1 (stereo not drawn) [No. 1-003]
Spodoptera litura; drug solution 10 ppm
  mortality: ≥ 80%

## Cc1cc(C2=NOC(c3cc(Cl)cc(Cl)c3)(C(F)(F)F)C2)ccc1C(=O)NC1(C(=O)NCC(F)(F)F)CC1 (stereo not drawn) [No. 1-006]
Liriomyza trifolii
  mortality: ≥ 80%
Nilaparvata lugens
  mortality: ≥ 80%

## COC(N)=NC(=O)c1ccc(C2=NOC(c3cc(Cl)cc(Cl)c3)(C(F)(F)F)C2)cc1I (stereo not drawn) [No. 2-001]
[1]
  mortality: ≥ 80%
Nilaparvata lugens
  mortality: ≥ 80%

## CONC(N)=NC(=O)c1ccc(C2=NOC(c3cc(Cl)cc(Cl)c3)(C(F)(F)F)C2)cc1C (stereo not drawn) [No. 2-014]
[1]
  mortality: ≥ 80%

## CCONC(N)=NC(=O)c1ccc(C2=NOC(c3cc(Cl)cc(Cl)c3)(C(F)(F)F)C2)cc1C (stereo not drawn) [No. 2-016]
[1]
  mortality: ≥ 80%

## Cc1cc(C2=NOC(c3cc(Cl)cc(Cl)c3)(C(F)(F)F)C2)ccc1C(=O)N=C(N)N[N+](=O)[O-] (stereo not drawn) [No. 2-017]
[1]
  mortality: ≥ 80%

## CCOC(N)=NC(=O)c1ccc(C2=NOC(c3cc(Cl)cc(Cl)c3)(C(F)(F)Cl)C2)cc1C (stereo not drawn) [No. 2-018]
Spodoptera litura; drug solution 100 ppm (mark *)
  mortality: ≥ 80%
Plutella xylostella; drug solution 100 ppm (mark *)
  mortality: ≥ 80%

## CCOC(N)=NC(=O)c1ccc(C2=NOC(c3cc(Br)cc(Br)c3)(C(F)(F)F)C2)cc1C (stereo not drawn) [No. 2-019]
Spodoptera litura; drug solution 100 ppm (mark *)
  mortality: ≥ 80%
Plutella xylostella; drug solution 100 ppm (mark *)
  mortality: ≥ 80%

## COC(N)=NC(=O)c1ccc(C2=NOC(c3cc(C(F)(F)F)cc(C(F)(F)F)c3)(C(F)(F)F)C2)cc1 (stereo not drawn) [No. 2-020]
Spodoptera litura; drug solution 100 ppm (mark *)
  mortality: ≥ 80%
Plutella xylostella; drug solution 100 ppm (mark *)
  mortality: ≥ 80%

## COC(N)=NC(=O)c1ccc(C2=NOC(c3cc(Cl)c(Cl)c(Cl)c3)(C(F)(F)F)C2)cc1 (stereo not drawn) [No. 2-021]
[1]
  mortality: ≥ 80%

## CCNC(=NC(=O)c1ccc(C2=NOC(c3cc(Cl)cc(Cl)c3)(C(F)(F)F)C2)cc1C)OC (stereo not drawn) [No. 3-002]
Planococcus kraunhiae
  mortality: ≥ 80%

## COC(=NC(=O)c1ccc(C2=NOC(c3cc(Cl)cc(Cl)c3)(C(F)(F)F)C2)cc1C)NNC=O (stereo not drawn) [No. 3-008]
Spodoptera litura; [2]
  mortality: ≥ 80%
Plutella xylostella; [2]
  mortality: ≥ 80%

## COC(=NC(=O)c1ccc(C2=NOC(c3cc(Cl)cc(Cl)c3)(C(F)(F)F)C2)cc1C)NNC(C)=O (stereo not drawn) [No. 3-009]
Spodoptera litura; [2]
  mortality: ≥ 80%
Plutella xylostella; [2]
  mortality: ≥ 80%

## COC(=O)NNC(=NC(=O)c1ccc(C2=NOC(c3cc(Cl)cc(Cl)c3)(C(F)(F)F)C2)cc1C)OC (stereo not drawn) [No. 3-010]
[1]
  mortality: ≥ 80%

## CCOC(=NC(=O)c1ccc(C2=NOC(c3cc(Cl)cc(Cl)c3)(C(F)(F)F)C2)cc1C)NC (stereo not drawn) [No. 3-011]
[1]
  mortality: ≥ 80%

## CNC(=NC(=O)c1ccc(C2=NOC(c3cc(Cl)cc(Cl)c3)(C(F)(F)F)C2)cc1C)SC (stereo not drawn) [No. 3-013]
Spodoptera litura; drug solution 10 ppm
  mortality: ≥ 80%
[1]
  mortality: ≥ 80%
